Laboratory results as given in the supplement of paper PMC10849652.
The other results are listed elsewhere or left out.

The chains behind the UniProt entries cited, without tags or fusion partners. Where a name states a change or a piece, a line headed by the entry shows the natural chain unless it says otherwise.
UniProt Q3SXY8: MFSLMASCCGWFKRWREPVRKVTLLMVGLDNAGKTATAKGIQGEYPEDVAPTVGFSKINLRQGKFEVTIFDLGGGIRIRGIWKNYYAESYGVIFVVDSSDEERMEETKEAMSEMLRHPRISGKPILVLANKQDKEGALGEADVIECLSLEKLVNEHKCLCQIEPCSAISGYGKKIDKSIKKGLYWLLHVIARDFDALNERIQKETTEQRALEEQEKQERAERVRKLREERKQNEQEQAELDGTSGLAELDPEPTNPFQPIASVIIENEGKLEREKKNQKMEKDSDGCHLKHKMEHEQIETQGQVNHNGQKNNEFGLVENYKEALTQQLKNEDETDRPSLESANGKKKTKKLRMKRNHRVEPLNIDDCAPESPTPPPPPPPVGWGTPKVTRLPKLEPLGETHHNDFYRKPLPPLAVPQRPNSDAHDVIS
UniProt Q96KC2: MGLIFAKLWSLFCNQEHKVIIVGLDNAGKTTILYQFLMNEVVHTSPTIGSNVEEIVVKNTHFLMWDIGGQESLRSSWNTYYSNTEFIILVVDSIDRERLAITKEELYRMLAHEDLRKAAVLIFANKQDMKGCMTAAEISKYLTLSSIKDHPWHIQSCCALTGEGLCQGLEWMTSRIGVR
UniProt Q8TER5, whole entry, looked up: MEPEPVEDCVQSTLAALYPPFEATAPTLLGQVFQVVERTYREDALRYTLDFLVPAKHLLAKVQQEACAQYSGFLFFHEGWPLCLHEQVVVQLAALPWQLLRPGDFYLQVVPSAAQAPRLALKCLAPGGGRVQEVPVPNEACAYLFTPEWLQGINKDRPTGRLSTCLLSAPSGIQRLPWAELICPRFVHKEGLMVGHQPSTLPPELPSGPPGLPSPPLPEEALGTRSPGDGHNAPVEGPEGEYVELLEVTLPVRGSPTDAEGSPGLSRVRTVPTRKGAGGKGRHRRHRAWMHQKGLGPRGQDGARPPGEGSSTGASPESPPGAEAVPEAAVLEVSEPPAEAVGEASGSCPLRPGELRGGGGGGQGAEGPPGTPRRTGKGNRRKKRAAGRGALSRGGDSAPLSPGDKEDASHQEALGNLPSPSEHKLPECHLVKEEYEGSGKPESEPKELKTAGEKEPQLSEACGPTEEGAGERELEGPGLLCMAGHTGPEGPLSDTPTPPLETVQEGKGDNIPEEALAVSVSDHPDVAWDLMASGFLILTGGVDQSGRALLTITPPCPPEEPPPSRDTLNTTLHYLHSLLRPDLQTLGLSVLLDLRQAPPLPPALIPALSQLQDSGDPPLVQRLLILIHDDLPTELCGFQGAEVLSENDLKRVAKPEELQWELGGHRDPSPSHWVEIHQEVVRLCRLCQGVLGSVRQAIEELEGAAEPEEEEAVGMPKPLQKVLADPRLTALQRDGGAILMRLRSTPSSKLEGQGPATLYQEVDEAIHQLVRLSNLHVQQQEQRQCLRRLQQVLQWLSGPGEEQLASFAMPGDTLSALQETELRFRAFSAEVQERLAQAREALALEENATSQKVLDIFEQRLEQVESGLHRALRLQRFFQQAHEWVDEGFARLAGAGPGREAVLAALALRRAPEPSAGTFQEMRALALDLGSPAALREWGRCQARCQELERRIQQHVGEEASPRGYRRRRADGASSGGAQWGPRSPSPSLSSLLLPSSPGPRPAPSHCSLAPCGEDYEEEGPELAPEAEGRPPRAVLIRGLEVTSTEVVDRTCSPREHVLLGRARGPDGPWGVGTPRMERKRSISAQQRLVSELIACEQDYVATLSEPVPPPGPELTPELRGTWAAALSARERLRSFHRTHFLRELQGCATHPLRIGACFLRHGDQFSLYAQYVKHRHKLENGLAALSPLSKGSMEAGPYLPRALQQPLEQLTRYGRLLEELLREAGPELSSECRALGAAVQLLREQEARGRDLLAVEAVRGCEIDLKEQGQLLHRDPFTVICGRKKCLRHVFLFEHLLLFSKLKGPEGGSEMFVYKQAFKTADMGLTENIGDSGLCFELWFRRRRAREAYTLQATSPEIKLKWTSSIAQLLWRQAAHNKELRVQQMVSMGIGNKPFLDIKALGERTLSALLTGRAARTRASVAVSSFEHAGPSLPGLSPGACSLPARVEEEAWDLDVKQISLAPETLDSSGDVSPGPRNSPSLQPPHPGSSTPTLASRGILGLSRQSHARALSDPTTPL
UniProt Q02410: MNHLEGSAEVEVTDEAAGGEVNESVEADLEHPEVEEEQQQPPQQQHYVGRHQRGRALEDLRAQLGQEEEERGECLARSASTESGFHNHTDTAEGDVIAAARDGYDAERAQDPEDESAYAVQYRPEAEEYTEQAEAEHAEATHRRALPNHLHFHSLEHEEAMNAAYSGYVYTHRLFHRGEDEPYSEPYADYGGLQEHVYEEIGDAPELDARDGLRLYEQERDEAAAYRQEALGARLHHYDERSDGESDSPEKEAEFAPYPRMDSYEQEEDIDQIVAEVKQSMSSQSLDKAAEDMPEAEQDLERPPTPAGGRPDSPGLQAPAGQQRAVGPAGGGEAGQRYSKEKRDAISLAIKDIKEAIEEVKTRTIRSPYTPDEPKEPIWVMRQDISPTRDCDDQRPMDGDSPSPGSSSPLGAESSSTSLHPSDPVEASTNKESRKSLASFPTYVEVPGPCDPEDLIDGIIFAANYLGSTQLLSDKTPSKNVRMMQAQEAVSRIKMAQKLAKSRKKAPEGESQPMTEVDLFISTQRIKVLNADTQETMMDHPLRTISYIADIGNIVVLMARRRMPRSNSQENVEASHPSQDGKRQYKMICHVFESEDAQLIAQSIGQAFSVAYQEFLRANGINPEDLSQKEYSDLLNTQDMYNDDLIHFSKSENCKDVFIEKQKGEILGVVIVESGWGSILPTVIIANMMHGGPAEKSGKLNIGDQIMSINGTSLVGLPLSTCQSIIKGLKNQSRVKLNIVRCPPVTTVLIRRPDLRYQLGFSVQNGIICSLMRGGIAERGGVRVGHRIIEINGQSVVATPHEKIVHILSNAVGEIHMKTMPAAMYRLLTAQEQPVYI
UniProt Q9NUS5: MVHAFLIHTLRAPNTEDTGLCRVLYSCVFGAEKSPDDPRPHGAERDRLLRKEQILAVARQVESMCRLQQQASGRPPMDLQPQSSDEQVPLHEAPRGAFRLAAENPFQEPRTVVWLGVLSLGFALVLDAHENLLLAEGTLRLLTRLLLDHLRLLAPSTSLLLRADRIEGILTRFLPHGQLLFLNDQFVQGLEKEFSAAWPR
UniProt O60306: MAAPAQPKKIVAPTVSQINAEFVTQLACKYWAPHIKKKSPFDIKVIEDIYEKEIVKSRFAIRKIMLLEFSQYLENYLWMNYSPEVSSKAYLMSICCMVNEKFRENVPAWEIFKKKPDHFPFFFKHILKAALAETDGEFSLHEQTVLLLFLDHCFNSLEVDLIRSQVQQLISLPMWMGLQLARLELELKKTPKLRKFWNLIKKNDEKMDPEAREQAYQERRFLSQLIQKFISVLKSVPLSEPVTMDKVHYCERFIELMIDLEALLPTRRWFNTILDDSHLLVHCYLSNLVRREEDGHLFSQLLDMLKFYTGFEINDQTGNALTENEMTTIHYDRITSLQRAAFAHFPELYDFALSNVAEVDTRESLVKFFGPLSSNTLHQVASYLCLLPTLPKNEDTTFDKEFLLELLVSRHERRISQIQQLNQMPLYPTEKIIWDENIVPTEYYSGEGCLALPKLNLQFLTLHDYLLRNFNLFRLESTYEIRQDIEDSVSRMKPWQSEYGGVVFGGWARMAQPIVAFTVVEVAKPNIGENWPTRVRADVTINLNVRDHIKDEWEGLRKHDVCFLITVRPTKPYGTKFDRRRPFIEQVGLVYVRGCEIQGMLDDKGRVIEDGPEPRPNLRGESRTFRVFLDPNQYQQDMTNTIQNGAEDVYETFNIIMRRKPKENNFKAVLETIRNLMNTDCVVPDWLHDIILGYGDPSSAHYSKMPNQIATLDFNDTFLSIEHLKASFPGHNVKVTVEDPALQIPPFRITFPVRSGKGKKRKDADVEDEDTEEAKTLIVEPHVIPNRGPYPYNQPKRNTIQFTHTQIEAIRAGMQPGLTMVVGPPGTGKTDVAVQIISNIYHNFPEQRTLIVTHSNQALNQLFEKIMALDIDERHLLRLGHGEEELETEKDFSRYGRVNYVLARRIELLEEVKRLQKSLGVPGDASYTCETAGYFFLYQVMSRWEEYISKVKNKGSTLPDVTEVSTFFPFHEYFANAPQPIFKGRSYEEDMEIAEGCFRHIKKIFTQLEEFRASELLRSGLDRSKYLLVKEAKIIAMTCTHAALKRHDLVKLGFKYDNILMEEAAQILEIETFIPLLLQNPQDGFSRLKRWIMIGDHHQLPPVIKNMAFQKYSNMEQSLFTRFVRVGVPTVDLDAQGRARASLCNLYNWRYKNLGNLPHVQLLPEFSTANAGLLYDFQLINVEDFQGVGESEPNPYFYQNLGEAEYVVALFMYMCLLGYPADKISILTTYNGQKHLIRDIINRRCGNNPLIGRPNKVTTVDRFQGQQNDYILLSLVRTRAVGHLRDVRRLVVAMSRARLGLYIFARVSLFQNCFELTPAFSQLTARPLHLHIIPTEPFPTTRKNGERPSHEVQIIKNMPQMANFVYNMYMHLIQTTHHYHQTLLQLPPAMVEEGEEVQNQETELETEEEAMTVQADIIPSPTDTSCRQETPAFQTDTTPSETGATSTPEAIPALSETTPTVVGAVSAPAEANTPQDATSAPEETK
UniProt Q68CP9, whole entry, looked up: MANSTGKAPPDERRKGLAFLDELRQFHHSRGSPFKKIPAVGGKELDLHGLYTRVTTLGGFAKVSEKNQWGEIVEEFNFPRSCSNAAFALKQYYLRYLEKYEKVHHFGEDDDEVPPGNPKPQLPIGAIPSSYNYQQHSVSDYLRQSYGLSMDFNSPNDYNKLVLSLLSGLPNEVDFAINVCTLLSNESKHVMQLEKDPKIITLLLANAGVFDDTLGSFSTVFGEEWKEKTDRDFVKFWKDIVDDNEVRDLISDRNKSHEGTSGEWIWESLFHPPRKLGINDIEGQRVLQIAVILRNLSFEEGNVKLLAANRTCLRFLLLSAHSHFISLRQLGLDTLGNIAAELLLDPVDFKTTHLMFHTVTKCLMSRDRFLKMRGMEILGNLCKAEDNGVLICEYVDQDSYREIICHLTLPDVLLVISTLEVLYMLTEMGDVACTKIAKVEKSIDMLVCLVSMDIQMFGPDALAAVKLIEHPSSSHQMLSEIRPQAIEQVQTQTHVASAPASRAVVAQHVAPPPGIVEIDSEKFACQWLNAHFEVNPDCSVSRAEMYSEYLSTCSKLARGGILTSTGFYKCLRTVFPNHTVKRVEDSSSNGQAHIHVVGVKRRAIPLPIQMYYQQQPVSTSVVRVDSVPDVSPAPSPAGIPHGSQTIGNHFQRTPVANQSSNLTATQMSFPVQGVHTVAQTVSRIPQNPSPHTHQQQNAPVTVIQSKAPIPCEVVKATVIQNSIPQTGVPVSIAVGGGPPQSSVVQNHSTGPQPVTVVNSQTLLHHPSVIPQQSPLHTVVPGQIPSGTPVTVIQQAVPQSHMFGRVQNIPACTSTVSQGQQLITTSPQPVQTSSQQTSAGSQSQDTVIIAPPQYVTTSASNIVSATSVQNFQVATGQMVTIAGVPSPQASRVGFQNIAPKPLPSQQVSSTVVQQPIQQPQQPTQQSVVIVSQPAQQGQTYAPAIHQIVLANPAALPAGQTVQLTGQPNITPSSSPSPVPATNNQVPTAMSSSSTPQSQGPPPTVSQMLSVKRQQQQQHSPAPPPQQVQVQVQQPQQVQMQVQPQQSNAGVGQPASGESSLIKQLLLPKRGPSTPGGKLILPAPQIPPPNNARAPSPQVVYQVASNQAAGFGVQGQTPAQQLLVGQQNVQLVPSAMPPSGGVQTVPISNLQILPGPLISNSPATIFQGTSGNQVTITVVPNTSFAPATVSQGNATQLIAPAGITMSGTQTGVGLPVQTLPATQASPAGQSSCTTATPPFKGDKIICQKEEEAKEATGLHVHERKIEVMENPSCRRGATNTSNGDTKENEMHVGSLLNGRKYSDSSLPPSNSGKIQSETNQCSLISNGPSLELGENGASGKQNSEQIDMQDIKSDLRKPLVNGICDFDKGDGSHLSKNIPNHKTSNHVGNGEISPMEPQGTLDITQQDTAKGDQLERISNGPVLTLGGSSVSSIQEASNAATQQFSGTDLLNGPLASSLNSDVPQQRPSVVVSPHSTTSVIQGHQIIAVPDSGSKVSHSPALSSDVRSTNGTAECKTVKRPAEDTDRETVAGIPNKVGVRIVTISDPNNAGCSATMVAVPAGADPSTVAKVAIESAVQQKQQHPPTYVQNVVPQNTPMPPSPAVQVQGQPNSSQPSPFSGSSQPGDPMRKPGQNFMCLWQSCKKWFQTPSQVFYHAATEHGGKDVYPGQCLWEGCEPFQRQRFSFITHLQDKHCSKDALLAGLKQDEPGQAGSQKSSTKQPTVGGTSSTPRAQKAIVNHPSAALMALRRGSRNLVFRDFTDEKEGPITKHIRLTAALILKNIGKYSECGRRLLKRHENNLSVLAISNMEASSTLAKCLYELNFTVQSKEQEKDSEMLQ

Assays:
Experiment in all cases: log2 fold change, soluble protein after heating vs DMSO (PISA); higher = thermal stabilisation; K562 lysate, 10 uM; active = over 0.2 and 3.5 SD of the protein, either way, in both replicates (recomputed)
erlotinib = compound: C#Cc1cccc(Nc2ncnc3cc(OCCOC)c(OCCOC)cc23)c1 [erlotinib]
How it was run: (§1)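 K562 pellets were dounce-homogenised in PBS pH 7.4 with 1 mM MgCl2, and the crude extract at 1 mg/mL protein was treated with 10 μM compound for 30 min. Aliquots were heated for 3 min across 48°C-58°C, pooled, and brought to 0.5% NP-40 at 4°C; soluble protein was the supernatant after 21,000xg for 90 min. Soluble protein was quantified by TMTpro 16plex LC-MS/MS with channel sums equalised, and reported as log2 fold change in thermal stability against DMSO controls, with values from duplicates.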

[1] = compound: C1=CC(=CC=C1C2=NC3=C(N2)C=C(C=C3)C(=O)N)OC4=CC=C(C=C4)Cl
How it was run: as §1

[2] = compound: C1=CC2=NC=CN=C2C=C1/C=C/3\C(=O)NC(=O)S3
How it was run: as §1

[3] = compound: C1CCN(C1)C(=O)NC2=CC=CC(=C2)NC3=NC=C(C(=N3)NCCC4=CN=CN4)Br
How it was run: as §1

[4] = compound: C1CN(CCC1(CC2=CC=C(C=C2)Cl)N)C3=NC=NC4=C3C=CN4
How it was run: as §1

ibrutinib = compound: C=CC(=O)N1CCC[C@@H](n2nc(-c3ccc(Oc4ccccc4)cc3)c3c(N)ncnc32)C1 [ibrutinib]
How it was run: as §1

[5] = compound: CC(C)C1=C2N=C(C=C(N2N=C1)NCC3=CC=CC=C3)NCCCCCCN
How it was run: as §1

[6] = compound: CC1=C(C(CC(=O)N1)C2=CC=C(C=C2)C(F)(F)F)C(=O)NC3=C(C=C4C(=C3)C=NN4)F
How it was run: as §1

[7] = compound: CC1=C(C2=C(C=C1)C(=O)C3=CC=CC=C3N2CCCN)C
How it was run: as §1

[8] = compound: CC1=C(C=C(C=C1)NC(=O)C2=CC(=CC=C2)C(C)(C)C#N)NC3=CC4=C(C=C3)N=CN(C4=O)C
How it was run: as §1

[9] = compound: C/C(=N\NC(=O)C1=CC(=CC=C1)S(=O)(=O)N2CCOCC2)/C3=C(C=CC(=C3)Cl)O
How it was run: as §1

[10] = compound: C1=CC2=C(C=CC(=C2)/C=C\3/C(=O)NC(=NCC4=CC=CS4)S3)N=C1
How it was run: as §1

[11] = compound: C1=CC=C(C=C1)C2=NC(=C(N2)C3=CC=NC=C3)C4=CC(=C(C=C4)Cl)O
How it was run: as §1

[12] = compound: C1=CC=C2C(=C1)C3=NNC4=CC=CC(=C43)C2=O
How it was run: as §1

IRAK-1-4 Inhibitor I = compound: C1COCCN1CCN2C3=CC=CC=C3N=C2NC(=O)C4=CC(=CC=C4)[N+](=O)[O-] [IRAK-1-4 Inhibitor I]
How it was run: as §1

[13] = compound: CC(=O)c1cnc2ccc(-c3cc(Cl)c(O)c(Cl)c3)nc2c1N[C@H]1CC[C@H](CN(C)C)CC1
How it was run: as §1

ralimetinib = compound: CC(C)(C)Cn1c(N)nc2ccc(-c3[nH]c(C(C)(C)C)nc3-c3ccc(F)cc3)nc21 [ralimetinib]
How it was run: as §1

[14] = compound: CC(C)(O)CC(=O)NCCn1ccc2ncnc(Nc3ccc(Oc4cccc(C(F)(F)F)c4)c(Cl)c3)c21
How it was run: as §1

[15] = compound: CC1=C(C=C(C=C1)NC(=O)C2=CC(=CC=C2)N(C)C)NC(=O)C3=CC=C(C=C3)O
How it was run: as §1

[16] = compound: CC1=CC=C(C=C1)SC2=C3C=C(SC3=CN=C2)C(=O)N
How it was run: as §1

Measured: log2 fold change

APP (UniProt P05067)
inactive: erlotinib -0.082 | [1] 0.078 | [2] -0.112 | [3] -0.014 | [4] -0.052 | ibrutinib 0.056 | [5] -0.072 | [6] 0 | [7] 0.059 | [8] -0.131

ARL13B (UniProt Q3SXY8)
inactive: erlotinib 0.043 | [9] 0.06 | [1] -0.195 | [10] -0.039 | [2] 0.118 | [11] -0.033 | [12] 0.094 | IRAK-1-4 Inhibitor I 0.038 | ibrutinib -0.001 | [13] -0.033 | ralimetinib 0.058 | [14] -0.032 | [5] 0.081 | [7] -0.002 | [8] 0.047 | [15] -0.068 | [16] 0.077

ARL5B (UniProt Q96KC2)
inactive: erlotinib 0.116 | [9] -0.061 | [1] 0.106 | [10] -0.05 | [2] -0.052 | [11] -0.001 | [12] 0.002 | [3] -0.088 | [4] -0.002 | IRAK-1-4 Inhibitor I 0.022 | ibrutinib -0.048 | [13] 0.073 | ralimetinib 0.076 | [14] -0.112 | [5] 0.18 | [6] -0.005 | [8] 0.011 | [15] -0.051 | [16] 0.002

ARHGEF40 (UniProt Q8TER5)
inactive: erlotinib -0.023 | [1] 0.084 | [11] 0.086 | IRAK-1-4 Inhibitor I -0.028 | [13] 0.171 | ralimetinib 0.035 | [14] -0.204 | [5] 0.006 | [6] -0.039 | [7] -0.139 | [15] -0.016 | [16] 0.045

APBA3 (UniProt O96018)
inactive: erlotinib -0.006 | [9] -0.115 | [1] -0.022 | [10] -0.098 | [11] -0.065 | [12] -0.214 | [3] 0.007 | [4] -0.308 | IRAK-1-4 Inhibitor I 0.075 | [13] -0.203 | ralimetinib 0.027 | [14] -0.152 | [5] -0.063 | [8] -0.128 | [15] 0.112 | [16] 0.07

APBA1 (UniProt Q02410)
inactive: erlotinib 0.053 | [1] -0.01 | [2] 0.123 | [11] 0.146 | [3] -0.033 | [4] -0.017 | IRAK-1-4 Inhibitor I -0.04 | ibrutinib -0.095 | [13] 0.021 | ralimetinib 0.09 | [14] -0.021 | [5] -0.01 | [6] -0.037 | [8] -0.004 | [15] 0.115 | [16] -0.008

AP5S1 (UniProt Q9NUS5)
inactive: erlotinib 0.108 | [1] 0.344 | [11] 0.006 | [3] 0.054 | [4] 0.146 | IRAK-1-4 Inhibitor I -0.044 | [13] -0.219 | ralimetinib -0.208 | [14] -0.068 | [5] -0.455 | [7] -0.099 | [8] 0.097 | [15] -0.073 | [16] 0.113

Two records picked at random from the list so far:
ARHGEF40 (UniProt Q8TER5)
inactive: erlotinib -0.023 | [1] 0.084 | [11] 0.086 | IRAK-1-4 Inhibitor I -0.028 | [13] 0.171 | ralimetinib 0.035 | [14] -0.204 | [5] 0.006 | [6] -0.039 | [7] -0.139 | [15] -0.016 | [16] 0.045

APBA3 (UniProt O96018)
inactive: erlotinib -0.006 | [9] -0.115 | [1] -0.022 | [10] -0.098 | [11] -0.065 | [12] -0.214 | [3] 0.007 | [4] -0.308 | IRAK-1-4 Inhibitor I 0.075 | [13] -0.203 | ralimetinib 0.027 | [14] -0.152 | [5] -0.063 | [8] -0.128 | [15] 0.112 | [16] 0.07

(listing goes on)

ARHGAP45 isoform 2 (UniProt Q92619)
inactive: erlotinib 0.052 | [9] -0.027 | [1] 0.004 | [10] 0.03 | [2] 0.094 | [11] 0.056 | [12] -0.009 | [3] 0.038 | [4] 0.075 | IRAK-1-4 Inhibitor I 0.022 | ibrutinib 0.08 | [13] -0.009 | ralimetinib 0.016 | [14] -0.039 | [5] -0.018 | [6] 0.067 | [7] -0.039 | [8] -0.008 | [15] 0.007 | [16] 0.014

APLF (UniProt Q8IW19)
inactive: erlotinib 0.115 | [9] 0.034 | [1] -0.001 | [10] -0.032 | [2] 0.204 | [12] 0.084 | [3] 0.043 | [4] -0.096 | ibrutinib 0.033 | [13] -0.118 | [5] -0.069 | [8] 0.086 | [16] -0.052

APOL2 (UniProt J3KQL8)
inactive: erlotinib 0.042 | [9] -0.235 | [1] -0.045 | [10] -0.064 | [2] 0.012 | [11] 0.043 | [12] 0.189 | [3] 0.028 | [4] 0.057 | IRAK-1-4 Inhibitor I 0.025 | ibrutinib 0.01 | [13] -0.004 | ralimetinib 0.117 | [14] 0.027 | [5] -0.055 | [6] 0.1 | [7] -0.002 | [8] -0.043 | [15] -0.005 | [16] -0.047

AQR (UniProt O60306)
inactive: erlotinib 0.024 | [9] -0.023 | [1] -0.029 | [10] 0.03 | [2] 0.078 | [11] 0.003 | [12] -0.026 | [3] -0.009 | [4] -0.015 | IRAK-1-4 Inhibitor I 0 | ibrutinib 0.011 | [13] -0.009 | ralimetinib 0.062 | [14] 0.029 | [5] 0.007 | [6] 0 | [7] -0.003 | [8] -0.027 | [15] 0.042 | [16] -0.006

ARF1 (UniProt P84077)
inactive: erlotinib 0.036 | [1] -0.087 | [11] -0.037 | IRAK-1-4 Inhibitor I 0.108 | [13] -0.162 | ralimetinib 0.009 | [14] -0.072 | [5] -0.243 | [8] 0.091 | [15] -0.087 | [16] -0.456

ARID2 (UniProt Q68CP9)
inactive: [9] 0.005 | [10] -0.018 | [2] 0.047 | [11] 0.178 | [12] -0.016 | [3] -0.052 | [4] -0.014 | IRAK-1-4 Inhibitor I 0.067 | ibrutinib -0.013 | [13] 0 | ralimetinib 0.037 | [14] -0.032 | [6] 0.056 | [7] -0.093 | [8] 0.016 | [15] 0.058 | [16] 0.006
